Laboratory results reported in the supplement of paper PMC10849652.
The other results are listed elsewhere or left out.

Amino acid sequences for entries named in this document (tags omitted). A change or cut given only in a name is not applied to a line headed by its entry.
UniProt O15240: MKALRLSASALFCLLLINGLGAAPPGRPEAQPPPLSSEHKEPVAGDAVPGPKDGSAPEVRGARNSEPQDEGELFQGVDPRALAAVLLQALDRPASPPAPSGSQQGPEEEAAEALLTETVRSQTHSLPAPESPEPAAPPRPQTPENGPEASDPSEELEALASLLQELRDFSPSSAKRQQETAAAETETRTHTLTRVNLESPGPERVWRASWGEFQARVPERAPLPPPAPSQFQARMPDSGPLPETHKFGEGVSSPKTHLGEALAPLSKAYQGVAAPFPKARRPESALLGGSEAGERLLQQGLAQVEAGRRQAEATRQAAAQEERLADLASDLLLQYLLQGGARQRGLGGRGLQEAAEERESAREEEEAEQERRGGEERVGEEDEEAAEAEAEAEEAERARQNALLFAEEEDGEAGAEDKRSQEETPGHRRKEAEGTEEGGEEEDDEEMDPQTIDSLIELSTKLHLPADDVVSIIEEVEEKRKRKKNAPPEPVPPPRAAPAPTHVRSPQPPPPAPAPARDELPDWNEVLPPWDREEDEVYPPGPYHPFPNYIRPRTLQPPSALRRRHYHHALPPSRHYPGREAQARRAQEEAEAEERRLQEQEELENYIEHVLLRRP
UniProt Q502W6: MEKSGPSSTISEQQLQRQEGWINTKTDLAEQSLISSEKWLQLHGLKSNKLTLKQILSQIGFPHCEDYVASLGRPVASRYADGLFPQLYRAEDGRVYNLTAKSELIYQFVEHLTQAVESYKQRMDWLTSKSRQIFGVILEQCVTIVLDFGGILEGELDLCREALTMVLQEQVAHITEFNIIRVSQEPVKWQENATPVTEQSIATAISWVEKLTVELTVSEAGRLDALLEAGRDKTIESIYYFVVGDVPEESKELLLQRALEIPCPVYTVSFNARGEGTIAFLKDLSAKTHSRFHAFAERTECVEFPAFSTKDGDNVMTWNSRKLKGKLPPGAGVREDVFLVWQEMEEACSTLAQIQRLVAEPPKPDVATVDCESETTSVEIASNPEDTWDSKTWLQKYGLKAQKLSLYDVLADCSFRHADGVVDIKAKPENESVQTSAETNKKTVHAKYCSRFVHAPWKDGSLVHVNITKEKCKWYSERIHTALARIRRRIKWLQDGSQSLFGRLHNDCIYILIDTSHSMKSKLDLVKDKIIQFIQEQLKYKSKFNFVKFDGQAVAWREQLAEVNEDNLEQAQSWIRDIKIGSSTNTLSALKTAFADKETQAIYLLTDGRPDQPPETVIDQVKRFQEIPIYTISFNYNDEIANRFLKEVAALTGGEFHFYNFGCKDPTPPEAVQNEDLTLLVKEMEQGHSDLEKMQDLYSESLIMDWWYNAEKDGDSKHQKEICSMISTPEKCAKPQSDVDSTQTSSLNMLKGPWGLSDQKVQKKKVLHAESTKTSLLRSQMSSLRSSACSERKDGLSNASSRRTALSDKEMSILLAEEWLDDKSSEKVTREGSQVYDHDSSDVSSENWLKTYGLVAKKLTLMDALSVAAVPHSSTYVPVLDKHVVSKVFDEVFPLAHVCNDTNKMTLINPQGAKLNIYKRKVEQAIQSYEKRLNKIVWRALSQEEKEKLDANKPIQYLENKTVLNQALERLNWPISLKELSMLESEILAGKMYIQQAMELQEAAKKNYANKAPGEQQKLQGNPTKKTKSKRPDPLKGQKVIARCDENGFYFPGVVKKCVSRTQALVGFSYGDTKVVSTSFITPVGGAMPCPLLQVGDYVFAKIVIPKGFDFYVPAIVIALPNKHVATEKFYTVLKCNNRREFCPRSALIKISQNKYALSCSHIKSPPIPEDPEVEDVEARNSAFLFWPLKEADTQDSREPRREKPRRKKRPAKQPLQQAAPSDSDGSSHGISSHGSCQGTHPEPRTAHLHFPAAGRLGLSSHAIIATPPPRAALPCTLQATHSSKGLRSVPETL
UniProt Q3ZAQ7: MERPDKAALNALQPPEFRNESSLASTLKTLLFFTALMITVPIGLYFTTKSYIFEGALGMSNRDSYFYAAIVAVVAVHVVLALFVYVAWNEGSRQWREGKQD
UniProt Q8IWA0: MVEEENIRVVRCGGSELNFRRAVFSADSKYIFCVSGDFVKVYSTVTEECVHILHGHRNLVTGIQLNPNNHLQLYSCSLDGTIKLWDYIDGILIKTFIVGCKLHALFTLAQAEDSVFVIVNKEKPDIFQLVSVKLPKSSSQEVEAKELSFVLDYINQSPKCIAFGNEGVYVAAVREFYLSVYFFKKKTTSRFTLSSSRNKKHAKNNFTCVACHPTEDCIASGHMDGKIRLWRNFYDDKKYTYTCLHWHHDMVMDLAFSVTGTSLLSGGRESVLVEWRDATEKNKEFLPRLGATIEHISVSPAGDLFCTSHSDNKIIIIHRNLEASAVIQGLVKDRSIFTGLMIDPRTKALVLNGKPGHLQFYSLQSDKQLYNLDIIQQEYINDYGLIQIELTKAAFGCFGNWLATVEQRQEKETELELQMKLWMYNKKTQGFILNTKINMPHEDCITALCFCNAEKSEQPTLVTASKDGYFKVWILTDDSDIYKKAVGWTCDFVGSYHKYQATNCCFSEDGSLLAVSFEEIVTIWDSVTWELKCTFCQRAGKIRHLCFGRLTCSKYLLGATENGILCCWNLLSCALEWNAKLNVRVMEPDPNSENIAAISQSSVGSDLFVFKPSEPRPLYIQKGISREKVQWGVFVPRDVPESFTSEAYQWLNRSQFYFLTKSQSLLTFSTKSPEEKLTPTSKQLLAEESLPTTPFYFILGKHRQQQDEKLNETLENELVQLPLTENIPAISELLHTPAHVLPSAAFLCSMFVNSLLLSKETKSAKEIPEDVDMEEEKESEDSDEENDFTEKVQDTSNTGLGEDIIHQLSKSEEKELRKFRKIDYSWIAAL
UniProt A4D1P6: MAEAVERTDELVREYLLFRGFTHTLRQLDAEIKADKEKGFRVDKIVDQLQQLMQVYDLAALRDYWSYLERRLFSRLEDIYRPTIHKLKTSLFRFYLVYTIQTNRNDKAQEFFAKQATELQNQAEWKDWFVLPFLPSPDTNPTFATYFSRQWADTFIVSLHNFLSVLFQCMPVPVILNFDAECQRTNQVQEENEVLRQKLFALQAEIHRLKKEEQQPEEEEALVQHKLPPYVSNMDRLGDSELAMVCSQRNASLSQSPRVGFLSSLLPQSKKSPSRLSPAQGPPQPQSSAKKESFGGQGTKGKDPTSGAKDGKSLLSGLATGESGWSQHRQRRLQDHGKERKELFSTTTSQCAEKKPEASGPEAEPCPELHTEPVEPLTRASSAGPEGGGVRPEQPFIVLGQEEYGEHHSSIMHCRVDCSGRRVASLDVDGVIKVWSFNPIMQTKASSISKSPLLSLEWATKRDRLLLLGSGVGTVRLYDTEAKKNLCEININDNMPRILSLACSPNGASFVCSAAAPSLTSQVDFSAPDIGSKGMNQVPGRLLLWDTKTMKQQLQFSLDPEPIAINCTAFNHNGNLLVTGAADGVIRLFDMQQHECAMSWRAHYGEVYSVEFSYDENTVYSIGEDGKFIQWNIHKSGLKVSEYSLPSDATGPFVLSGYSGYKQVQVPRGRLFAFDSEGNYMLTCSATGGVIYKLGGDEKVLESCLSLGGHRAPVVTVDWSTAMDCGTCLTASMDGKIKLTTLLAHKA
UniProt Q92558: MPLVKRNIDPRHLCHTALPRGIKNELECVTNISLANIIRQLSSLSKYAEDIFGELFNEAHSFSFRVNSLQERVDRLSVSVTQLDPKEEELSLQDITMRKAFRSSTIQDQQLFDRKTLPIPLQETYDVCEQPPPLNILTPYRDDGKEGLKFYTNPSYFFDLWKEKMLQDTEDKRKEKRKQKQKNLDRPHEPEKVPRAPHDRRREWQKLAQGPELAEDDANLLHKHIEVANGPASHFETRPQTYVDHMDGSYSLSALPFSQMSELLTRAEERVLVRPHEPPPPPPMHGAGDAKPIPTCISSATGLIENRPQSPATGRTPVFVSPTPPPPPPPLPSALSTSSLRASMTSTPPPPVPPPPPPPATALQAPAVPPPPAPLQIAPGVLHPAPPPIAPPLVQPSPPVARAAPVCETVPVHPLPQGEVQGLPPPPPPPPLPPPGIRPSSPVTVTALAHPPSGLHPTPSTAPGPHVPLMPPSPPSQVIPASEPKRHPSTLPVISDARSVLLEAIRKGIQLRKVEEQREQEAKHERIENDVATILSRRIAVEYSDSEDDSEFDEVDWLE
UniProt A5D8V6: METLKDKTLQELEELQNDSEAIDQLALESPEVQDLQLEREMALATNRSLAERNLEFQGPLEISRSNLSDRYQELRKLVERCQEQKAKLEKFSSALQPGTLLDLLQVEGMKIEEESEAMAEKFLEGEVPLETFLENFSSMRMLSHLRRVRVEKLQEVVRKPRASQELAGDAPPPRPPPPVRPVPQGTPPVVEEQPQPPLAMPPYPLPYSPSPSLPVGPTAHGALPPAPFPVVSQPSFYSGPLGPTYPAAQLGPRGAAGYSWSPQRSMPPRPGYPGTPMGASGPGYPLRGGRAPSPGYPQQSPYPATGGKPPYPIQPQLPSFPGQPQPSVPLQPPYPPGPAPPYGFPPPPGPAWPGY
UniProt Q9Y4P8: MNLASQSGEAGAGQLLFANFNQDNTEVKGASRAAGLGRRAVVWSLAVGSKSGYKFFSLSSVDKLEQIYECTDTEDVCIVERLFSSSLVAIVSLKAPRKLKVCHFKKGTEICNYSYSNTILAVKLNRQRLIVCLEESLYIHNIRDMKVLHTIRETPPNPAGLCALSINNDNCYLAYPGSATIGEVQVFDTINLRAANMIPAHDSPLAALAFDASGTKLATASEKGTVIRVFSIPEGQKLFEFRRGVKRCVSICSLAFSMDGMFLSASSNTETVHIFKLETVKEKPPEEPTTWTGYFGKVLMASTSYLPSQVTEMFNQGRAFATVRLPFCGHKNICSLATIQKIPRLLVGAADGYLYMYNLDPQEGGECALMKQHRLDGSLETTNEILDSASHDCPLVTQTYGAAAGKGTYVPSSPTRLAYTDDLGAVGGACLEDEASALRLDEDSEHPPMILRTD
UniProt Q9P1Q0: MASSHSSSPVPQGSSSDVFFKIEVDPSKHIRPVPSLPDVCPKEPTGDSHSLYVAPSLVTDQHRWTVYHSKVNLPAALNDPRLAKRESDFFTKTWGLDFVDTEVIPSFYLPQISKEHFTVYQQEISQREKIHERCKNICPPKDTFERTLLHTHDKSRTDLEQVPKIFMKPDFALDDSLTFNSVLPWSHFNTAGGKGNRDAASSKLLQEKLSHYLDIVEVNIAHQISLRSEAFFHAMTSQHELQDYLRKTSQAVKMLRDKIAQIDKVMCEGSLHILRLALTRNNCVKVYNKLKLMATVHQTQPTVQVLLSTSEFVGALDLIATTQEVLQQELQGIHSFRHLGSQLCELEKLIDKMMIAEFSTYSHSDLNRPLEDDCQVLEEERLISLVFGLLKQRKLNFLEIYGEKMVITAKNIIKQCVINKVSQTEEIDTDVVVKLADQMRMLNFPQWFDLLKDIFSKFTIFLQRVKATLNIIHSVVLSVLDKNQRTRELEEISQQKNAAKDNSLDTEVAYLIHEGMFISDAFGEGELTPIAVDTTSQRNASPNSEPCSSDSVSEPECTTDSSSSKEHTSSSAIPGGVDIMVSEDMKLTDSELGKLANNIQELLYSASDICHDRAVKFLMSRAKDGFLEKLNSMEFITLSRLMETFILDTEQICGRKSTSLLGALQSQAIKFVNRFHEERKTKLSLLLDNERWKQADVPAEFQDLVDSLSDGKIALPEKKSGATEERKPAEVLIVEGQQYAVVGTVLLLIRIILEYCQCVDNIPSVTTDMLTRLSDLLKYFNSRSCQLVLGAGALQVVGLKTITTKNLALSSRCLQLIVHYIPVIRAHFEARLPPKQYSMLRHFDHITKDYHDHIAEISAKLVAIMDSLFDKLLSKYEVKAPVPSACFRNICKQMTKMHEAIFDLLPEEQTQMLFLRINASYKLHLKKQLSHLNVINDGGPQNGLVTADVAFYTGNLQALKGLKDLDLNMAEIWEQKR
UniProt Q96P53: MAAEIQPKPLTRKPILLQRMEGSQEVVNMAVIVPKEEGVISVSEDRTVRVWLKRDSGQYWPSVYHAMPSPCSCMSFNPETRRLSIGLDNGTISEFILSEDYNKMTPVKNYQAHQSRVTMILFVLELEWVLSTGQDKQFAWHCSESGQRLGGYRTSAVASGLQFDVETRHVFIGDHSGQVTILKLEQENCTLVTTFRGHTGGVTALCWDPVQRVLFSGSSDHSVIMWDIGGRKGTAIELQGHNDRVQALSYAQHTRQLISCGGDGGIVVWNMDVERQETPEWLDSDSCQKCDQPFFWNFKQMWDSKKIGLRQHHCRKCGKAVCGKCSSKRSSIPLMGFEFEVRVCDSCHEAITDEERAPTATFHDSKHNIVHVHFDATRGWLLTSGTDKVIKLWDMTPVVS

compound: CCCS(=O)(=O)Nc1ccc(F)c(C(=O)c2c[nH]c3ncc(Cl)cc23)c1F; assay: log2 fold change, soluble protein after heating vs DMSO (PISA); higher = thermal stabilisation; K562 cells, 10 uM, 30 min; active = over 0.2 and 3.5 SD of the protein, either way, in both replicates (recomputed)
Procedure, shortened: (§1)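 Quantification of soluble protein used TMTpro 16plex LC-MS/MS, with channel sums equalised. Samples were the supernatant after 21,000xg for 90 min of pooled aliquots from K562 cells (2×10^6 cells/mL) treated with 10 μM compound for 30 min, heated for 3 min over 48°C-58°C, and extracted in PBS with 0.5% NP-40 at 4°C. Values, from duplicates, describe thermal stability against control samples on a log2 fold-change scale.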

log2 fold change, inactive:
VPS13A isoform 4 (UniProt Q96RL7) -0.107
VPS35, A0A1W2PP10 -0.002
VGF (UniProt O15240) -0.452
VWA3B isoform 6 (UniProt Q502W6) 0.008
VMA21 isoform 2 (UniProt Q3ZAQ7) 0.305
WDR75 (UniProt Q8IWA0) -0.069
WDR76 (UniProt Q9H967) 0.007
WDR19 (UniProt Q8NEZ3) -0.142
VEGFA (UniProt H0YBI8) -0.372
WDR91 (UniProt A4D1P6) 0.019
WASF1 (UniProt Q92558) 0.116
VPS37C (UniProt A5D8V6) -0.007
VDAC2 (UniProt Q5JSD1) -0.073
WIPI2 isoform 6 (UniProt Q9Y4P8) 0.003
WAC (UniProt Q9BTA9) 0.238

compound: CCCc1cc(C)[nH]c(=O)c1CNC(=O)c1cc(-c2ccnc(N3CCN(C)CC3)c2)cc2c1cnn2C(C)C; assay: as above
Procedure, shortened: as §1

log2 fold change, inactive:
VPS35, A0A1W2PP10 0.136
VWA3B isoform 6 (UniProt Q502W6) -0.169
VMA21 isoform 2 (UniProt Q3ZAQ7) -0.048
WARS1 (UniProt G3V5U1) -0.118
WDR75 (UniProt Q8IWA0) 0.107
WARS1 (UniProt G3V277) -0.338
VEGFA (UniProt H0YBI8) -0.141
WDR91 (UniProt A4D1P6) 0
VLDLR (UniProt P98155) -0.009
WASF1 (UniProt Q92558) -0.128
VPS37C (UniProt A5D8V6) 0.021
VDAC2 (UniProt Q5JSD1) -0.239
XAB2 (UniProt Q9HCS7) 0.168

compound: CCN(CC)Cc1ccc2cc(COC(=O)Nc3ccc(C(=O)NO)cc3)ccc2c1 [givinostat]; assay: as above
Procedure, shortened: as §1

log2 fold change, inactive:
VPS13A isoform 4 (UniProt Q96RL7) 0.11
VIRMA (UniProt Q69YN4) 0.01
VGF (UniProt O15240) 0.09
VWA3B isoform 6 (UniProt Q502W6) 0.011
VMA21 isoform 2 (UniProt Q3ZAQ7) -0.045
WDR83 (UniProt Q9BRX9) -0.132
VPS54 (UniProt Q9P1Q0) 0.191
WARS1 (UniProt G3V277) 0.141
VEGFA (UniProt H0YBI8) 0.104
WASF1 (UniProt Q92558) 0.019
VPS37C (UniProt A5D8V6) -0.034
WDFY2 (UniProt Q96P53) 0.138

compound: CCN(CCCOc1ccc2c(Nc3cc(CC(=O)Nc4cccc(F)c4)[nH]n3)ncnc2c1)CCOP(=O)(O)O [barasertib]; assay: as above
Procedure, shortened: as §1

log2 fold change, inactive:
WDR4 isoform 3 (UniProt P57081) 0.08
WARS1 (UniProt G3V3P2) -0.255
VIRMA (UniProt Q69YN4) -0.037
VPS35, A0A1W2PP10 0.012
VGF (UniProt O15240) -0.069
VWA3B isoform 6 (UniProt Q502W6) 0.057
VMA21 isoform 2 (UniProt Q3ZAQ7) 0.048
WARS1 (UniProt G3V227) 0.004
WBP1L isoform 2 (UniProt Q9NX94) -0.041
WARS1 (UniProt G3V5U1) -0.007
WDR75 (UniProt Q8IWA0) 0.025
WDR19 (UniProt Q8NEZ3) -0.028
WARS1 (UniProt G3V277) 0.073
VEGFA (UniProt H0YBI8) -0.081
WDR91 (UniProt A4D1P6) -0.013
WASF1 (UniProt Q92558) 0.03
VPS37C (UniProt A5D8V6) -0.019
VDAC2 (UniProt Q5JSD1) 0.047
WIPI2 isoform 6 (UniProt Q9Y4P8) 0.118
VIL1 (UniProt P09327) -0.051
